The whole screen tested about 360,000 compounds, of which about 10,000 (2.8%) were called active. The shares of active, inactive and inconclusive entries below differ from those in the screen. Calls come from the whole dose curve; as a rule, active = well fitted inhibition curve with a large enough effect; inconclusive = small, poorly fitted or top-dose-only effect; inactive = flat fitted curve, though single readings scatter. Potencies of inconclusive entries are doubtful fits and often do not repeat.
molecular target: Serine/threonine-protein kinase PLK1 (Homo sapiens) (UniProt P53350); assay: qHTS for Inhibitors of PLK1-PDB (polo-like kinase 1 - polo-box domain): Primary Screen; details: Plk1 PBD binding of FITC phosphopeptide, fluorescence polarization; note: nearly all actives have a fitted effect of over 65% in size; for max response, negative = inhibition: series mostly up to about 57 µM
% is set by controls: 0 for no effect and ±100 for the full control effect; potency is the fitted concentration of half-maximal effect.

The chains behind the UniProt entries cited, without tags or fusion partners.
UniProt P53350, whole entry, looked up: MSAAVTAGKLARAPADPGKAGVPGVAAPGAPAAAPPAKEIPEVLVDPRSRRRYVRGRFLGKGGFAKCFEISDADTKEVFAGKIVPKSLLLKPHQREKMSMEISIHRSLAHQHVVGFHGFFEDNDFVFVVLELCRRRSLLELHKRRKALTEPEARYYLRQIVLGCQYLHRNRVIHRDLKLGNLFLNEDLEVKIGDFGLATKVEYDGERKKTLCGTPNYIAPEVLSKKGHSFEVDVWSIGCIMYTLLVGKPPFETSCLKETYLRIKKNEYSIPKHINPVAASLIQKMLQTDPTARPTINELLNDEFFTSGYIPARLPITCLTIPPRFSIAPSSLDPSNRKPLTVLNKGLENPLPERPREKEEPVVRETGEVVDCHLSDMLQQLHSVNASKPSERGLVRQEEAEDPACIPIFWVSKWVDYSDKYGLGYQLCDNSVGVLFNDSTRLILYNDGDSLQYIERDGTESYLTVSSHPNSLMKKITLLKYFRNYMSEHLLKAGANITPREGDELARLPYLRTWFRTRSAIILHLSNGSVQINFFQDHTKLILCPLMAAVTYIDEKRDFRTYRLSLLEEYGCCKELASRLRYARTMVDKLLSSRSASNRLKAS

Q: For `O=C(OCn1ncc(Cl)c(Cl)c1=O)c1ccccc1Cl`, which Potency is on record?
A: inconclusive: 29.9 µM [inhibitor, partial curve]

Q: How did the max response, negative = inhibition turn out when `COc1ccccc1Nc1nc(NCc2ccco2)c2ccccc2n1` was run?
A: inactive: 7.83%

Q: For `CCc1cc(=O)oc2cc(C)cc(OC(C)C(=O)NCCCN3CCOCC3)c12` (configuration not stated), which Potency is on record?
A: inconclusive: 33.6 µM [inhibitor, single point]

Q: `COc1ccc(C2/C(=C(/O)c3ccc(F)cc3)C(=O)C(=O)N2c2ccccn2)cc1OC` (configuration not stated) was tested. Which Potency did it give?
A: active: 11.9 µM

Q: For `CCOC(=O)c1c(NC(=O)/C=C\C(=O)O)sc(C)c1-c1ccccc1`, which Potency is on record?
A: active: 21.2 µM

Q: How did the Potency turn out when `COc1cc(-c2cc(NC=O)c3ncc(-c4ccc(F)cc4)n3c2)cc(OC)c1OC` was run?
A: inconclusive: 33.6 µM [inhibitor, partial curve]

Q: For `CCCCNC(=S)NNC(=O)c1csc(C)c1`, which max response, negative = inhibition is on record?
A: inactive: -14.5%

Q: `N/C(Cc1ccc([N+](=O)[O-])cc1)=N\OC(=O)c1cccc(Br)c1` was tested. Which Potency did it give?
A: inconclusive: 5.97 µM [inhibitor, single point]

Q: `CCCn1c(SCC(=O)Nc2cccc(S(=O)(=O)NC3=NCCCCC3)c2)nc2ccccc2c1=O` was tested. Which Potency did it give?
A: inconclusive: 9.47 µM [inhibitor, full curve]

Q: With `Cc1ccc(-c2nc(CNC(=O)c3cc(C)on3)cs2)cc1` as the compound, how does the Potency read?
A: inconclusive: 26.7 µM [inhibitor, partial curve]

Q: For `COCCc1ncc(CN2CCC(C(=O)Nc3cccc(-c4cscn4)c3)CC2)cn1`, which Potency is on record?
A: active: 18.9 µM

Q: Which max response, negative = inhibition does the source give for `Cc1ccc(S(=O)(=O)N(CC(=O)N/N=C/c2ccco2)Cc2ccccc2)cc1` here?
A: inactive: -3.21%

Q: `COC(=O)CCC(=O)OC1(C)C(=O)C2=CN(c3ccc(OC)cc3)C(c3ccc(OC)cc3)=CC2=C(Br)C1=O` (configuration not stated) was tested. Which Potency did it give?
A: inconclusive: 29.9 µM [inhibitor, single point]

Q: `COc1cc(OC)cc(C(C(=O)NCc2ccccc2)N(Cc2ccco2)C(=O)c2ccno2)c1` (configuration not stated) was tested. Which max response, negative = inhibition did it give?
A: inactive: -3.84%

Q: `CN1CCN(CCCOc2ccc(-c3ccccc3)cc2)CC1` was tested. Which Potency did it give?
A: active: 21.2 µM

Q: For `CCc1ccc(NC(=O)c2ccccc2Br)cc1`, which max response, negative = inhibition is on record?
A: inconclusive: -31.5% [inhibitor]

Q: For `CSc1cccc(NC(=O)C(C)NS(=O)(=O)c2ccc(F)cc2)c1` (configuration not stated), which Potency is on record?
A: inconclusive: 29.9 µM [inhibitor, partial curve]

Q: `COc1cccc(C2CC(C(F)(F)F)n3ncc(C(=O)NC(C)(C)C)c3N2)c1` (configuration not stated) was tested. Which Potency did it give?
A: inconclusive: 26.7 µM [inhibitor, single point]

Q: Which Potency does the source give for `O=C(O)C1CCN(C(=O)c2ccccc2N2C(=O)[C@@H]3Cc4c([nH]c5ccccc45)C(c4cccc(Cl)c4)N3C2=O)CC1` (some centres not stated) here?
A: inconclusive: 67 µM [inhibitor, partial curve]

Q: With `Cc1ccc(CN(C)C(=O)c2cccc(S(=O)(=O)N3CCCC3)c2)cc1` as the compound, how does the max response, negative = inhibition read?
A: inactive: -2.43%

Q: How did the max response, negative = inhibition turn out when `O=C(N/N=C/c1ccc([N+](=O)[O-])o1)c1cc(-c2ccc(-c3ccccc3)cc2)nc2ccccc12` was run?
A: inactive: -23%

Q: How did the Potency turn out when `Nc1sc2c(c1C(=O)NCCc1ccccc1)CCCC2` was run?
A: inconclusive: 29.9 µM [inhibitor, partial curve]

Q: How did the Potency turn out when `Cc1[nH]c(=S)c(C#N)c(C)c1C(=O)Nc1ccccc1` was run?
A: inconclusive: 23.8 µM [inhibitor, partial curve]

Q: With `Cc1nnc(SCc2ccc(Cl)c(Cl)c2)s1` as the compound, how does the max response, negative = inhibition read?
A: inactive: -9.05%

Q: How did the max response, negative = inhibition turn out when `CCCCN(C(=O)c1ccc(-c2ccc(Cl)cc2)o1)c1c(N)n(CCC)c(=O)[nH]c1=O` was run?
A: inconclusive: -33.6% [inhibitor]

Q: For `CC(C)(C)c1ccc(-c2csc(NNC3=NCCCCC3)n2)cc1`, which Potency is on record?
A: inconclusive: 23.8 µM [inhibitor, partial curve]

Q: `Cc1cccc(C(=O)N(Cc2nc3ccccc3c(=O)[nH]2)C2CCCCC2)c1` was tested. Which Potency did it give?
A: inconclusive: 10.6 µM [inhibitor, partial curve]

Q: Which max response, negative = inhibition does the source give for `Cc1c(NC(=S)NC(=O)c2ccc(COc3ccccc3)cc2)cccc1C(=O)O` here?
A: inactive: -21%

Q: `O=C(CN1C(=O)NC2(CCCCC2)C1=O)NCCCSc1ccccc1` was tested. Which max response, negative = inhibition did it give?
A: inactive: -7.35%

Q: `O=C(NCc1ccncc1)c1ccc(S(=O)(=O)Nc2ccccc2)cc1` was tested. Which max response, negative = inhibition did it give?
A: inactive: 4.1%

Q: With `CCCCCCCCNC(C)C(O)c1ccc(SC(C)C)cc1` (configuration not stated) as the compound, how does the max response, negative = inhibition read?
A: inconclusive: -32.2% [inhibitor]

Q: For `CN1OC[C@@H]2CN(Cc3cc(Cl)cc(Cl)c3)[C@H](c3cccc(-c4ccccc4)c3)C[C@@H]21`, which max response, negative = inhibition is on record?
A: inactive: -9.2%

Q: How did the max response, negative = inhibition turn out when `CCn1c(=O)n(CC)c2cc(S(=O)(=O)N3CCc4ccccc43)ccc21` was run?
A: inactive: -6.95%

Q: With `CCC(=O)Oc1ccc2c(C)cc(=O)oc2c1C(=O)c1ccccc1` as the compound, how does the Potency read?
A: inconclusive: 37.7 µM [inhibitor, single point]

Q: With `Cc1cc(C)cc(NC(=O)C(NCCN2CCOCC2)c2ccccc2)c1` (configuration not stated) as the compound, how does the Potency read?
A: active: 23.8 µM

Q: Which Potency does the source give for `Cc1ccn2c(c1)nc(=S)n2C(=O)c1ccccc1` here?
A: active: 21.2 µM

Q: With `C=CCN1C(c2ccc(OCC)cc2)=CS/C1=C(\C#N)c1nnc2n1CCCCC2` as the compound, how does the max response, negative = inhibition read?
A: inactive: -6.16%

Q: With `O=C(/C=C/c1ccccc1Cl)N(c1ccccn1)C1CCCCC1` as the compound, how does the max response, negative = inhibition read?
A: inactive: -3.09%

Q: `COc1ccc(N)cc1NC(=O)CN1CCCC1` was tested. Which Potency did it give?
A: inconclusive: 21.2 µM [inhibitor, single point]

Q: With `CCOC(=O)C1CCN(C2=NC(=O)/C(=C/c3ccc(O)cc3)S2)CC1` as the compound, how does the Potency read?
A: inconclusive: 29.9 µM [inhibitor, single point]

Q: For `O=C(COc1ccc(-c2ccccc2)cc1)NNC(=O)NC1CCCCC1`, which max response, negative = inhibition is on record?
A: inactive: -3.45%

Q: `Cc1ccc(S(=O)(=O)c2nc(Nc3ccccc3N3CCOCC3)sc2Cl)cc1` was tested. Which max response, negative = inhibition did it give?
A: inactive: -7.92%

Q: With `CCOC(=O)[C@]12Cc3c(cc(OC)c(OC)c3OC)[C@H]1N(C1CCCCC1)C(=O)c1cc(OC)ccc12` as the compound, how does the Potency read?
A: inconclusive: 7.52 µM [inhibitor, single point]

Q: With `Cc1ccc(C)c(Cn2c(O)c(N=NC(=S)Nc3ccccc3F)c3ccccc32)c1` as the compound, how does the Potency read?
A: active: 23.8 µM

Q: Which max response, negative = inhibition does the source give for `CC1(C)CC(=O)C(CC(=O)NC(=O)NCc2ccccc2)=C(O)C1` here?
A: inactive: -0.636%

Q: Which Potency does the source give for `CSc1nsc(SCC(=O)Nc2ccccc2C(=O)O)n1` here?
A: inconclusive: 23.8 µM [inhibitor, partial curve]

Q: `Cc1cccc(C(=O)Oc2ccc(/C=N/NC(=O)c3cc(O)cc(O)c3)cc2)c1` was tested. Which Potency did it give?
A: inconclusive: 29.9 µM [inhibitor, single point]

Q: Which Potency does the source give for `O=C(c1ccco1)N1CCCN(C(=O)c2ccco2)CC1` here?
A: active: 18.9 µM

Q: Which Potency does the source give for `COc1cccc(-c2[nH]nc3c2C(c2ccsc2)C(C#N)=C(N)O3)c1` (configuration not stated) here?
A: inconclusive: 18.9 µM [inhibitor, partial curve]

Q: With `NC(=S)c1cc2ccc(O)cc2oc1=O` as the compound, how does the max response, negative = inhibition read?
A: inconclusive: -30.6% [inhibitor]

Q: With `COc1ccc(-c2nc(CSCC(=O)N3CCc4ccccc4C3)c(C)o2)cc1OC` as the compound, how does the Potency read?
A: inconclusive: 29.9 µM [inhibitor, partial curve]

Q: With `Cc1ccc(OCc2nnnn2-c2ccccc2)cc1` as the compound, how does the max response, negative = inhibition read?
A: inactive: 2.95%

Q: Which max response, negative = inhibition does the source give for `CN(Cc1ccco1)C(=O)CSc1nn2c(=O)c(C(C)(C)C)nnc2s1` here?
A: inactive: -23.2%

Q: `O=C(O)c1ccc(N2N=C(c3ccccc3)CC2c2ccccc2)cc1` (configuration not stated) was tested. Which Potency did it give?
A: inconclusive: 23.8 µM [inhibitor, partial curve]

Q: With `CCCc1cc(=O)oc2c(C)c(OCC(=O)NCc3ccccn3)ccc12` as the compound, how does the max response, negative = inhibition read?
A: inactive: 0.145%

Q: How did the Potency turn out when `O=C(NCc1cccnc1)c1ccc(Cn2c(=S)[nH]c3ccc(Br)cc3c2=O)cc1` was run?
A: inconclusive: 5.32 µM [inhibitor, full curve]

Q: For `O=C(CNC(=S)NC(=O)c1ccco1)c1ccccc1`, which max response, negative = inhibition is on record?
A: inactive: -3.56%

Q: How did the max response, negative = inhibition turn out when `CC1CC(C)(C)NC(=S)N1CCCC(=O)Nc1ccc2c(c1)OCCO2` (configuration not stated) was run?
A: inactive: -2.29%

Q: How did the max response, negative = inhibition turn out when `CCOc1ccc(S(=O)(=O)NCCC(=O)N2CC=C(c3ccccc3)CC2)cc1` was run?
A: inactive: -6.45%

Q: For `CCOC(=O)c1nc(C)n(-c2cc(OC)c(Cl)cc2Cl)n1`, which Potency is on record?
A: inconclusive: 33.6 µM [inhibitor, single point]

Q: With `Cc1cc(C)c2c(N)c(C(=O)N3CCCCCC3)sc2n1` as the compound, how does the Potency read?
A: inconclusive: 29.9 µM [inhibitor, single point]

Q: Which Potency does the source give for `OC(c1cccc(Cl)c1)c1nc(-c2ccoc2)cs1` (configuration not stated) here?
A: inconclusive: 26.7 µM [inhibitor, partial curve]

Q: With `O=C(NC(=S)Nc1nc(-c2cccc([N+](=O)[O-])c2)cs1)c1ccccc1Cl` as the compound, how does the max response, negative = inhibition read?
A: inactive: -15.5%

Q: Which Potency does the source give for `Nc1nc(SCC(=O)c2cccc([N+](=O)[O-])c2)n[nH]1` here?
A: inconclusive: 29.9 µM [inhibitor, partial curve]

Q: For `CCN(CC)C(=O)NC1CC2CCCC(C1)N2Cc1ccccc1` (configuration not stated), which Potency is on record?
A: inconclusive: 21.2 µM [inhibitor, single point]

Q: For `O=[N+]([O-])c1ccc(N2CCN(c3ccc(F)cc3)CC2)cc1`, which max response, negative = inhibition is on record?
A: inactive: -8.55%

Q: `CCCCCOC(=O)CSc1nc2c(c(=O)[nH]c(=O)n2C)n1Cc1ccc(Cl)cc1` was tested. Which Potency did it give?
A: inconclusive: 29.9 µM [inhibitor, partial curve]

Q: `COc1ccccc1-n1c(N)c(C(N)=O)sc1=S` was tested. Which Potency did it give?
A: active: 18.9 µM

Q: For `CCN(CC)S(=O)(=O)c1ccc(C)c(NC(=S)N2CCN(Cc3ccc4c(c3)OCO4)CC2)c1`, which Potency is on record?
A: inconclusive: 23.8 µM [inhibitor, single point]

Q: With `Brc1c(CSc2nncn2-c2ccccc2)nc2ncccn12` as the compound, how does the max response, negative = inhibition read?
A: inactive: -5.67%

Q: Which Potency does the source give for `CSc1nc(=S)n(-c2ccccc2)c(C)c1C(C)=O` here?
A: inconclusive: 21.2 µM [inhibitor, single point]

Q: `COc1cc(C(C2C(=O)CC(C)(C)CC2=O)C2C(=O)CC(C)(C)CC2=O)cc(OC)c1OC` was tested. Which Potency did it give?
A: inconclusive: 13.4 µM [inhibitor, partial curve]
